# The other results are listed elsewhere or left out.
# Target: T1, OsSMF1 (Oryza sativa, UniProt Q6ZLB0 1-436)
# T1 sequence: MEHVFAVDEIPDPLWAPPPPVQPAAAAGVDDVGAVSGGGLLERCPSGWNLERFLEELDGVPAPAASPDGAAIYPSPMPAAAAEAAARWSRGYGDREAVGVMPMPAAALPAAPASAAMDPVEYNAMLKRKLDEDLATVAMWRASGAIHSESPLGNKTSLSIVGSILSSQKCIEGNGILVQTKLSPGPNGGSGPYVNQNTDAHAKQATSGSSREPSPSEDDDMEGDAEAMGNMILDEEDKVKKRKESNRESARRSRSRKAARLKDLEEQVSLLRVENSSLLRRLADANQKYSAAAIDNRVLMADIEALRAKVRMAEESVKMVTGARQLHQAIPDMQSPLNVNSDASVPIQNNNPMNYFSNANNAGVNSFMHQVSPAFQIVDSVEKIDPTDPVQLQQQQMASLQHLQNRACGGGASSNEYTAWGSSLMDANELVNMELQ
# Assay: protein-binding microarray (RPBM); PBS, 2% BSA, 51.3 ng/ul salmon testes DNA, 50 uM zinc acetate, 200 nM TF, 25 C, 1 h; high values mean tight binding
# Conditions: protein: recombinant; tags: N-terminal polyhistidine and DsRed monomer fusion (pET32a); chain copies: 2; label: CyDye5-dUTP incorporated in the synthesized complementary strand; 3' TTTTT single-stranded linker to array surface; dsDNA, one strand shown
# Outline: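 Transcription factors, each fused N-terminally to a polyhistidine tag and DsRed, were expressed in E. coli BL21-CodonPlus and purified on Ni–NTA. A custom Agilent array was made double-stranded by primer extension with Cy5-dUTP and blocked with 2% BSA. It was incubated with 200 nM protein in PBS, 2% BSA, salmon testes DNA and 50 µM zinc acetate at 25 °C for 1 h, then washed. The binding signal is per-feature fluorescence intensity (arbitrary units) read on an Axon 4000B scanner.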
row,Sequence,binding signal
1,ACCGCCAAAAGCACACGCACTGGTGACTGGGTAGGTGGTGCGGAGTCACCTAGTGCAG,5450 fluorescence intensity (a.u.)
2,CACCGCTAACACAGCTAGCGACACACGCCAGCTCTCACGTCGGAGTCACCTAGTGCAG,3570 fluorescence intensity (a.u.)
3,AGCGATCCCCATAACGGAGGTGCGTGTCCTCCTCCTCCTCCGGAGTCACCTAGTGCAG,34000 fluorescence intensity (a.u.)
4,TGGTACCTGTGATACCTGGTACCTATGACACCTGGTATCTCGGAGTCACCTAGTGCAG,11500 fluorescence intensity (a.u.)
5,TCGAAAGCAATCTTGTCATCTCCTGCGTCATGTGACTCCACGGAGTCACCTAGTGCAG,4060 fluorescence intensity (a.u.)
6,CCGCTCCACTCCACCGGCGCCGTGTTTCCCTTCTCCCTCTCGGAGTCACCTAGTGCAG,4430 fluorescence intensity (a.u.)
7,TGCTCATTCTCAGCACAAGCAGTAGCTAGCTAGCAACTCTCGGAGTCACCTAGTGCAG,3200 fluorescence intensity (a.u.)
8,ATCATGAGTTGCTGACGCTTTCCAGATCAATCCCCTTTGTCGGAGTCACCTAGTGCAG,4180 fluorescence intensity (a.u.)
9,CAAGTTTAGAGACCGGAGTGACACAACTGAATAAGTTGGACGGAGTCACCTAGTGCAG,5740 fluorescence intensity (a.u.)
10,CTGCGCCTGCGTCTGCGCCACCGTCACCTTCGCGGCCGCGCGGAGTCACCTAGTGCAG,3450 fluorescence intensity (a.u.)
11,ATATGACAATCAGACCTTACATCACAGTAATGTACCAATCCGGAGTCACCTAGTGCAG,3540 fluorescence intensity (a.u.)
12,TCCGTTATATGTTAATCTATCCGATACTTGTAATACTTTTCGGAGTCACCTAGTGCAG,16200 fluorescence intensity (a.u.)
13,AATTGTTTACTGATCTTTGCGTTAATGATGATTGTGCCCTCGGAGTCACCTAGTGCAG,3160 fluorescence intensity (a.u.)
14,CGAAACCAGTCACGGGCCACTCACAACCACCACCCTAAACCGGAGTCACCTAGTGCAG,3230 fluorescence intensity (a.u.)
15,GTACCAACAGGATCCGTGGCGCAATGGTAGCGCGTCTGACCGGAGTCACCTAGTGCAG,3210 fluorescence intensity (a.u.)
16,CCTATCAGTACTGTCACATCTGGTGTGTGTGTGTCCAACTCGGAGTCACCTAGTGCAG,4280 fluorescence intensity (a.u.)
17,GTGTGAGGGAGGGAGGGAGTCGGACTCACAAGTCCCGGCCCGGAGTCACCTAGTGCAG,3600 fluorescence intensity (a.u.)
18,GCGGAGGCAAGAGGACGTGCAACACGTGGGATAGCGCCGACGGAGTCACCTAGTGCAG,4050 fluorescence intensity (a.u.)
19,GCGGCGTAATTGTAGTCAGCACTACCGATCAGCCCCTATTCGGAGTCACCTAGTGCAG,3760 fluorescence intensity (a.u.)
20,GATGTATATCCTATTAGGCGTGTTTGCTAGAGCCACTTCCCGGAGTCACCTAGTGCAG,3910 fluorescence intensity (a.u.)
21,TGCTACGGAGCTACGGATCTATGGCGACAGTAAGCGCTGGCGGAGTCACCTAGTGCAG,3160 fluorescence intensity (a.u.)

row,Sequence,binding signal
1,CGCTGGTTAGAGGTATTACGCTAGCACGTGTAGTCTAGTCCGGAGTCACCTAGTGCAG,6000 fluorescence intensity (a.u.)
2,ACTTTCGTCATGCTGCAGATGTCACCACCTATAATACACTCGGAGTCACCTAGTGCAG,6750 fluorescence intensity (a.u.)
3,CATGCCAGGTCAGTCGGCATCCATGAAGACTGCACTGCACCGGAGTCACCTAGTGCAG,42600 fluorescence intensity (a.u.)
4,ATCTATCTATGTACCTACTGCAAAAGGCTGCTGATTCGTGCGGAGTCACCTAGTGCAG,3870 fluorescence intensity (a.u.)
5,CTCTGCATTGCACCTCTCGACCCCTAGGATGTACACGTGGCGGAGTCACCTAGTGCAG,15200 fluorescence intensity (a.u.)
6,GGCGTGGGGAGGCGGAGGGAGGGAGGGGAGCGGCTGCGCACGGAGTCACCTAGTGCAG,5970 fluorescence intensity (a.u.)
7,ATGAAAACGTATCAATGTACGTCAGTCACTGGACATTAATCGGAGTCACCTAGTGCAG,3310 fluorescence intensity (a.u.)
8,ACCTCTACCCTAACACAGCACACCACACCGACACGTGGGCCGGAGTCACCTAGTGCAG,6970 fluorescence intensity (a.u.)
9,CAACCTTTATCTGAAGTGGCAGGCACGTGGATTAGCAATACGGAGTCACCTAGTGCAG,5790 fluorescence intensity (a.u.)
10,AGTAGAACAGAATAACCTGCCACGATGGCTTTGCCCGTAACGGAGTCACCTAGTGCAG,4880 fluorescence intensity (a.u.)
11,TGTGGGAGGGATGGGAGACGCTTGAGTCAACAGCGACCGGCGGAGTCACCTAGTGCAG,3690 fluorescence intensity (a.u.)
12,TTATGTCAAAACAATTATTAAAATACACGTGCTTCTTTTCCGGAGTCACCTAGTGCAG,3640 fluorescence intensity (a.u.)
13,CACCGGCCCCTCCACTTCTGGCCAGTGACGAGGGCGCGGACGGAGTCACCTAGTGCAG,3320 fluorescence intensity (a.u.)
14,CGCGCGCGACACTGCGCTCCCGTGCACGCCGCACGGAGGACGGAGTCACCTAGTGCAG,3260 fluorescence intensity (a.u.)
15,CTGCAGCTGACACATCTTCCTGCAAGGGCGCGGCGCAATCCGGAGTCACCTAGTGCAG,3700 fluorescence intensity (a.u.)
16,TTCTTCTAGAGGAGGAGGAGGCGGCGGGGCGGCGGGCGAGCGGAGTCACCTAGTGCAG,4420 fluorescence intensity (a.u.)
17,CTGGCGTGCGAGAAGGTGATGTGATGTGCGTGGCTGACGGCGGAGTCACCTAGTGCAG,4110 fluorescence intensity (a.u.)
18,GGAAGGGATTGAGACCAGGGGTTTATGTGGGCCCCACTATCGGAGTCACCTAGTGCAG,3170 fluorescence intensity (a.u.)
19,ACCCATAGAGATCGACACTATAGGTACCGGAATAACTAAACGGAGTCACCTAGTGCAG,63800 fluorescence intensity (a.u.)
20,CACCATGATCATCATCATGCACATCAACTATGTGCAGGCCCGGAGTCACCTAGTGCAG,3370 fluorescence intensity (a.u.)
21,TACCGAGGACTTGGAAACGACGCTGACGAGTTTCACCAGGCGGAGTCACCTAGTGCAG,3920 fluorescence intensity (a.u.)

# Some values from the list:
# binding signal with ATGAAAACGTATCAATGTACGTCAGTCACTGGACATTAATCGGAGTCACCTAGTGCAG reads 3310 fluorescence intensity (a.u.)
# binding signal with CACCGGCCCCTCCACTTCTGGCCAGTGACGAGGGCGCGGACGGAGTCACCTAGTGCAG reads 3320 fluorescence intensity (a.u.)
